PubChem BioAssay AID652248 | Drosophila RNAi Screening Center – 2013
Screen: 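Genes that govern switching among distinct shape types in fly blood cells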 (primary screen). System: cultured Drosophila hemocytes. Reagents: long dsRNA against Drosophila genes. Measurement: 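Automated microscopy of stained actin, tubulin and nuclei; single-cell shape measures assigned to five reference shape types, giving a score per dsRNA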. Reading the numbers: elongated score: higher = more elongated bipolar cells. Call rule: 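a gene counts as active when its knock-down clearly increases the elongated score; a low similarity score was then used to rank the actives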.
In all, the deposit lists 863 reagents; below is an unselected part. 32 of them (3.7%) were called active. 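Calls also used reproducibility and a similarity ranking whose scores are not deposited; many active genes show only modest elongated scores.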 Further read-outs or replicates are left out here. The record does not give: the amount of reagent, the time to read-out.

eas (easily shocked) [DRSC20329]
- elongated score, rep 1: 6.45
- outcome: inactive

eas (easily shocked) [DRSC29435]
- elongated score, rep 1: 6.77
- outcome: inactive

CycK (Cyclin K) [DRSC03714]
- elongated score, rep 1: 0.41
- outcome: inactive

Pdp (Pyruvate dehydrogenase phosphatase) [DRSC17825]
- elongated score, rep 1: 1.81
- elongated score, rep 2: 0.04
- outcome: inactive

Pdp (Pyruvate dehydrogenase phosphatase) [DRSC26725]
- elongated score, rep 1: 0.08
- outcome: inactive

Sdr (Secreted decoy of InR) [DRSC15517]
- elongated score, rep 1: -0.53
- outcome: inactive

gwl (greatwall) [DRSC16305]
- elongated score, rep 1: -0.53
- outcome: inactive

PTP-ER (Protein tyrosine phosphatase-ERK/Enhancer of Ras1) [DRSC04636]
- elongated score, rep 1: -0.2
- outcome: inactive

PTP-ER (Protein tyrosine phosphatase-ERK/Enhancer of Ras1) [DRSC23325]
- elongated score, rep 1: 0.39
- outcome: inactive

PTP-ER (Protein tyrosine phosphatase-ERK/Enhancer of Ras1) [DRSC28263]
- elongated score, rep 1: -0.08
- outcome: inactive

Ire1 (Inositol-requiring enzyme-1) [DRSC15606]
- elongated score, rep 1: -0.53
- outcome: inactive

kek1 (kekkon 1) [DRSC03551]
- elongated score, rep 1: -0.53
- outcome: inactive

CG1227 [DRSC12534]
- elongated score, rep 1: -0.53
- outcome: inactive

CG1227 [DRSC25952]
- elongated score, rep 1: -0.45
- outcome: inactive
